Whole data set: some 33,000 sequences, median “E-score (-0.5 to 0.5)” near -0.015, cut for the highest 2% near 0.3. Some of the results follow.

The values below come from the supplement of paper PMC3334620.

In the test the target is T1, Abf1 (UniProt P14164).
T1 sequence: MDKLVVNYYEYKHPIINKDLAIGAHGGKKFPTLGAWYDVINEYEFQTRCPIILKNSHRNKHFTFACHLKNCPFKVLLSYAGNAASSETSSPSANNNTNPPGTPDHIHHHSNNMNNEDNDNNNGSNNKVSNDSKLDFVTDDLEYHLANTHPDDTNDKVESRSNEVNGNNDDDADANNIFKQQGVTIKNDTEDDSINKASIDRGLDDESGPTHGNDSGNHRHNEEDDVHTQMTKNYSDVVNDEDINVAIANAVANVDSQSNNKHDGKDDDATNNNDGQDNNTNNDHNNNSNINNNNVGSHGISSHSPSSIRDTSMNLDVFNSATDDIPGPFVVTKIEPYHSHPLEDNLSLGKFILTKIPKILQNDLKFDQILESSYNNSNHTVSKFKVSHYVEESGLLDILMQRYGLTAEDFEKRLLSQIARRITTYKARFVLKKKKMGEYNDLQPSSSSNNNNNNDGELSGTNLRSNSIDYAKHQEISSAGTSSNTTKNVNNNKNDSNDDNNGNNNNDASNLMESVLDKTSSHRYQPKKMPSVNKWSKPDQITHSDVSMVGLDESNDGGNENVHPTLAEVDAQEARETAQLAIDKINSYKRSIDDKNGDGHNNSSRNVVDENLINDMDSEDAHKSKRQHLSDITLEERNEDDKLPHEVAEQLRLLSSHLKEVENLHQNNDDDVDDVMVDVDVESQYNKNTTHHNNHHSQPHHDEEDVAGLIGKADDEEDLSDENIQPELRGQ
Description: PBM E-score (8-mer binding enrichment) (E-score (-0.5 to 0.5)); higher = stronger / more preferred TF binding. Conditions: protein concentration: 200 nM; construct: GST-full length. The method in brief: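 PURExpress in vitro transcription/translation supplied GST-tagged yeast transcription factors, either full-length or DNA-binding domain. Applied at about 100-200 nM to universal all-10-mer Agilent arrays double-stranded by primer extension, the bound protein was detected with fluorescent anti-GST. E-scores, modified Wilcoxon-Mann-Whitney statistics, were given by the Universal PBM Analysis Suite to ungapped eight-base words pooled with their reverse complements after masliner normalisation.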
ACATCGAT: the “PBM E-score” value stood at 0.135. Regarding GATTTGAA, the “PBM E-score” value came to 0.063.

CCGTCAAA: the “PBM E-score” value is 0.262. As for CGGATAGC, the figure is -0.0225. As for TCGCCCGA, the figure is -0.251. As to GAGCCAGA, the “PBM E-score” value was -0.112. Take ACAGTCTG: the “PBM E-score” value was -0.159.

As to GAGAGCCC, the “PBM E-score” value is -0.176.

With GACCACTC, the “PBM E-score” value stood at 0.0428.

In the case of AGCTCGCA, the “PBM E-score” value was -0.065. The figure for AACTCGCT is -0.17. With TACGATAA, the “PBM E-score” value was determined as 0.179. Turning to CAAATTTC, the “PBM E-score” value was 0.0187. For AGCATCAT, the “PBM E-score” value was found to be 0.0136. Take ACATACCG: the “PBM E-score” value was determined as 0.247. Take CTCGCGAA: the “PBM E-score” value worked out at 0.107. In the case of GCCTGATA, the “PBM E-score” value is -0.0778. For the sequence AAAGGAAG, the “PBM E-score” value is -0.196.

As to CTAGGCAC, the “PBM E-score” value is -0.0596. In the case of GTACCTCA, the “PBM E-score” value worked out at 0.0875. As to ATAAGTAA, the “PBM E-score” value was determined as 0.154. As for CCTCTTCA, the figure is -0.17; as for GTGAGCCA, -0.0111. Regarding ATAAATAA, the “PBM E-score” value was determined as 0.246. Turning to CAATGGAA, the “PBM E-score” value was -0.0296.

Consider ACGGTTTG, for which the “PBM E-score” value is 0.0597. The figure for AACTTGCA is -0.0257.

For GCCCCTGA, the “PBM E-score” value was -0.166. For the sequence CCGTGAAA, the “PBM E-score” value came out at 0.381. The figure for CTTTACTA is 0.116; for CGGGATCC it is -0.0411. For the sequence ACATCATA, the “PBM E-score” value stood at 0.169. As for CCATCCCC, the figure is -0.287; as for CACATGCG, 0.0238; as for AGCGTGGG, -0.168. Consider AATTAGCC, for which the “PBM E-score” value was -0.103. With AGATTATG, the “PBM E-score” value is 0.083. Take ATTACGAG: the “PBM E-score” value was 0.159. The figure for CCGGTCCC is -0.146; for CTCTTAGA it is -0.0928; for TCGTCACA it is 0.282.

With AGAAAAAC, the “PBM E-score” value is -0.172.

For AGATACGA, the “PBM E-score” value turned out to be 0.223. With ATGGGCTG, the “PBM E-score” value was -0.153. Turning to CACTAGCA, the “PBM E-score” value turned out to be 0.00155. For GTAACGAC, the “PBM E-score” value turned out to be 0.239. As to CATTCTTC, the “PBM E-score” value amounted to 0.0175. As for TACCAAAA, the figure is 0.0276; as for CGAACCGA, 0.126. Turning to AGTGGCGG, the “PBM E-score” value was -0.267. TAGCTCCA: the “PBM E-score” value is -0.0302. Regarding TCGTGCCA, the “PBM E-score” value was determined as 0.226. Turning to CAGCCCAA, the “PBM E-score” value is -0.12. Consider GGCCACGA, for which the “PBM E-score” value is -0.151. CCCACTGC: the “PBM E-score” value was -0.19. TCGGCCAA: the “PBM E-score” value was -0.102. As to CGAATGGC, the “PBM E-score” value was -0.104. Turning to CAGGGACG, the “PBM E-score” value was -0.0727. Regarding CCACTTTC, the “PBM E-score” value was 0.0118. ACAGGCCC: the “PBM E-score” value is -0.369. Turning to AACTAAAT, the “PBM E-score” value is -0.196. In the case of AATCACCA, the “PBM E-score” value turned out to be 0.24. As for GGTTTCCA, the figure is -0.116; as for CGTTAGCA, 0.0353. On to AGCATCGG, for which the “PBM E-score” value stood at 0.0642. For AGCCGGCT, the “PBM E-score” value is -0.245. The figure for AGGATCTG is -0.12; for CTTAGCCC it is -0.264.

In the case of AGTTAGTA, the “PBM E-score” value was found to be 0.0677. Regarding ACTGCTAC, the “PBM E-score” value is -0.0013. Take GACGAAAA: the “PBM E-score” value turned out to be 0.337.

Regarding GCTATAAA, the “PBM E-score” value is -0.101.

Regarding CTTAGCAC, the “PBM E-score” value was found to be 0.105.

As for GTTGTTAA, the “PBM E-score” value stood at 0.158.

On to CGTAAGAG, for which the “PBM E-score” value stood at 0.0503.

Regarding GCTAAGAA, the “PBM E-score” value was -0.145. For ACCATACA, the “PBM E-score” value was -0.171. On to CCTGAATC, for which the “PBM E-score” value was -0.157.

Regarding TATGGAGA, the “PBM E-score” value stood at 0.181. As for ACGTACCG, the figure is 0.0986; as for CGTTCGTA, 0.345; as for GAATGATC, 0.32. As for AGGTACCT, the figure is -0.101; as for CTCGACAA, -0.0758; as for GTTTTGGA, 0.0572. Regarding AACCTACG, the “PBM E-score” value was determined as 0.0906.
